From patent US20210403514A1 (NATIONAL INSTITUTE FOR BIOTECHNOLOGY IN THE NEGEV, published 2021)
Results are given in words; binding and its absence hold for the method and conditions named. Some binding calls cover weakened binding; strength is not graded here.

By UniProt entry, the sequences of proteins in these tests, tags left out. Where a name states a change or a piece, a line headed by the entry shows the natural chain unless it says otherwise. Residues count along the entry.
UniProt P06756: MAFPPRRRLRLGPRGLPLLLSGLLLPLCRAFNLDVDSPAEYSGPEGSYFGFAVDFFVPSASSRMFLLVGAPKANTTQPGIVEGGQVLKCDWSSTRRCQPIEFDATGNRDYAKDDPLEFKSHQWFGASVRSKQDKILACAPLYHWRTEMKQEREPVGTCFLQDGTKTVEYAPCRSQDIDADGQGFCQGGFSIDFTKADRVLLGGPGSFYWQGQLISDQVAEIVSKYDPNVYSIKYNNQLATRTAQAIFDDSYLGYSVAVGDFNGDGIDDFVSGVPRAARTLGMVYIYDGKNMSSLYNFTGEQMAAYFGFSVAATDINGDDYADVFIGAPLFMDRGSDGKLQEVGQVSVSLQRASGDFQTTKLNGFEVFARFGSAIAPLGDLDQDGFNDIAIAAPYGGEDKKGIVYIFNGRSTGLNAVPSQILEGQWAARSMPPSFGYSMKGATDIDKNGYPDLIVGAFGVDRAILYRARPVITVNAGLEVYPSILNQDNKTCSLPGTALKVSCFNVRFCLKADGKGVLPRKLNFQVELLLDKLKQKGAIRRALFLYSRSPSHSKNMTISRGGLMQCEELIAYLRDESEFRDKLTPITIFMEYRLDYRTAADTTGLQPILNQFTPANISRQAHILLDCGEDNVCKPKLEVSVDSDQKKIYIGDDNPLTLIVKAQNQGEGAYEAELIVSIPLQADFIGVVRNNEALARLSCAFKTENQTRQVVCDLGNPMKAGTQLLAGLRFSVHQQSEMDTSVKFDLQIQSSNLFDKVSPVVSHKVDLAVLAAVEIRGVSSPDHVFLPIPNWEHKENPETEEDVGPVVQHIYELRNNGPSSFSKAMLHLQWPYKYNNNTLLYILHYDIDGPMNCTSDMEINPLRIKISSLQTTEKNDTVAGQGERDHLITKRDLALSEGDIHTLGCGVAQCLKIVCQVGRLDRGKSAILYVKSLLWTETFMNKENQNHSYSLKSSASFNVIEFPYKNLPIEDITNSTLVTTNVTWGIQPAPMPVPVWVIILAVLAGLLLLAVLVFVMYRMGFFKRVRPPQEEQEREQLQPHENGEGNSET
UniProt P07333, residues 20-512: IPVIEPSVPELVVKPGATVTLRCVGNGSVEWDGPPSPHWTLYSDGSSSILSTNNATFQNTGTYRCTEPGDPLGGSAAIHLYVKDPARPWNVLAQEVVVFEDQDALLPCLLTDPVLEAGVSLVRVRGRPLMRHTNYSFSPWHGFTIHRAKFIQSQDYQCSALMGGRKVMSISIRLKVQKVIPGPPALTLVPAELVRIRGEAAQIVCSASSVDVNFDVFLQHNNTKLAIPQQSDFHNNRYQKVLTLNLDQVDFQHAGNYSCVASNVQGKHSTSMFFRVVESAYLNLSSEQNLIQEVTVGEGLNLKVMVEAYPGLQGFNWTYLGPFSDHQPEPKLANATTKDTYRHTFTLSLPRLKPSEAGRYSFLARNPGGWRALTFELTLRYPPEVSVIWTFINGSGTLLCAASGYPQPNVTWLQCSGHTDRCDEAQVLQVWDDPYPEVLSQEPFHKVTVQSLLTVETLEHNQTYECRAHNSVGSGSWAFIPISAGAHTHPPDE
UniProt P18084: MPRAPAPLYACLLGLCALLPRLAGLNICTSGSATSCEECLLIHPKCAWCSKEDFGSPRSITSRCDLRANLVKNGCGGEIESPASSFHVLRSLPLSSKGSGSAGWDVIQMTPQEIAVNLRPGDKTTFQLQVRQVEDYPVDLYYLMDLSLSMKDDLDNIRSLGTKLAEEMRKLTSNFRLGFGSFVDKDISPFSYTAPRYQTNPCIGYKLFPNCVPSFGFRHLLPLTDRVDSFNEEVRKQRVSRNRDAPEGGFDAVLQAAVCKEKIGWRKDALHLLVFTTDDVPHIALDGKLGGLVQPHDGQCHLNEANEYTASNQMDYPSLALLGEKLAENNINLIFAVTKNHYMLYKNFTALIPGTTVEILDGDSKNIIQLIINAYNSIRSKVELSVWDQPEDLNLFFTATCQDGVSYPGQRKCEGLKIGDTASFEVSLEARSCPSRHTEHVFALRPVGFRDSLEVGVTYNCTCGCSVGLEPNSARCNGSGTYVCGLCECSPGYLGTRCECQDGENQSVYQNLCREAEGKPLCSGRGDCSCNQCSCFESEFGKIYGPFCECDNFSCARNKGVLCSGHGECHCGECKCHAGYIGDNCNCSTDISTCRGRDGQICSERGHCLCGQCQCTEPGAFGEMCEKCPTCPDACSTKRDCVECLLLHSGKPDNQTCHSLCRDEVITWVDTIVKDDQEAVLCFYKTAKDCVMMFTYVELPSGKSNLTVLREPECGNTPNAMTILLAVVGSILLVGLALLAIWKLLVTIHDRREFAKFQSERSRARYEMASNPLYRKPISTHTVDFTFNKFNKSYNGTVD

Legend:
[1] = target: T1, soluble human αvβ3 integrin (human, UniProt P06756 31-992; P05106 27-718); test: yeast surface display, flow cytometry; 20 nM soluble αvβ3 integrin; values normalized to the lowest binder
T1 construct: R&D Systems for yeast display; also called integrin αvβ3; recombinant αvβ3 integrin

[2] = target: soluble Fc conjugated human c-FMS (R&D systems) (human) (UniProt P07333); test: yeast surface display, flow cytometry; 50 nM soluble c-FMS-Fc; values normalized to M-CSFM
[3] = target: T1, soluble human αvβ3 integrin; test: yeast surface display flow cytometry, 20 nM αvβ3 integrin
[4] = target: T1, soluble human αvβ3 integrin; test: yeast surface display flow cytometry, integrins at 250 nM
[5] = target: T1, soluble human αvβ3 integrin; test: yeast surface display flow cytometry
[6] = target: soluble Fc conjugated human c-FMS (R&D systems) (human) (UniProt P07333); test: yeast surface display flow cytometry
[7] = target: soluble Fc conjugated human c-FMS (R&D systems) (human) (UniProt P07333); test: yeast surface display flow cytometry, 50 nM c-FMS
[8] = target: soluble human c-FMS receptor (extracellular domains, residues Met1-Glu512) (Sino Biological) (human) (UniProt P07333); test: SPR (ProteOn XPR36); variant immobilized by amine coupling, soluble human c-FMS flowed at 12.5 to 200 nM
[9] = target: T1, soluble human αvβ3 integrin; test: SPR (ProteOn XPR36); variant immobilized by amine coupling, soluble αvβ3 integrin flowed at 12.5 to 200 nM
integrin αvβ5 (human) [10] = target: T2, integrin αvβ5 (human) (UniProt P06756+P18084); test: SPR, integrin immobilised, variant at 1 µM as analyte; ranked best of the three on αvβ5
[11] = target: T1, soluble human αvβ3 integrin; test: SPR, integrin immobilised, variant at 1 µM as analyte
[12] = target: T1, soluble human αvβ3 integrin; test: SPR (ProteOn XPR36); αvβ3 integrin immobilized, variant flowed at 1 µM
integrin αvβ5 (human) [13] = target: T2, integrin αvβ5 (human); test: SPR (ProteOn XPR36); αvβ5 integrin immobilized, variant flowed at 1 µM

Measured: binding

B1: M-CSFRGD variant 4.24 displayed on the yeast surface (designed binder, not shown: large carriers)
chain: EEVSEYCSHMIGSGHLQSLQRLIDSQMETSSQITFEFVDQEQLKDPVCYLKKAFLLVQDIMEDEPVRGDNINPNAIAIVQLQELSLRLKSCFTKDYEEHDKACVRTFYETPLQLLEKVKNVFNETKNLLDKDWNIFSKNCNNSFAECSSQGHERQSEGS
binds: [1] | [2] | [3] | [4] | [5] | [6] | [7]

B2: M-CSFRGD variant 4.24, purified soluble, non-glycosylated (designed binder)
chain: EEVSEYCSHMIGSGHLQSLQRLIDSQMETSSQITFEFVDQEQLKDPVCYLKKAFLLVQDIMEDEPVRGDNINPNAIAIVQLQELSLRLKSCFTKDYEEHDKACVRTFYETPLQLLEKVKNVFNETKNLLDKDWNIFSKNCNNSFAECSSQGHERQSEGS
modifications: N-glycans removed with Endo HF (non-glycosylated)
notes: not shown: FLAG tag at the N-terminus of the cloning site (pPIC9K); 6xHis tag at the C-terminus of the cloning site
binds: [8] | [9] | integrin αvβ5 (human) [10] | [11] | [12] | integrin αvβ5 (human) [13]
